{
  "source": "patent US10525220B2",
  "about": "“Droplet delivery device for delivery of fluids to the pulmonary system and methods of use” (PNEUMA RESPIRATORY, INC., priority 2016, dated 2020)",
  "test": "Anderson Cascade Impactor testing of Albuterol sulfate aerosol from droplet delivery device (Example B)",
  "format": "physicochemical",
  "note": "At least one read-out could not be matched to a standard name with certainty.",
  "data": [
    {"substance": "Albuterol sulfate", "values": [
      {"measurement": "Total Cascade Recovery", "setting": "Albuterol 0.5%, 28.3 lpm, 10 actuations", "value": 897.4, "unit": "µg"},
      {"measurement": "Recovery Mass", "setting": "FILTER stage", "value": 31.021, "unit": "µg"},
      {"measurement": "Recovery Mass", "setting": "stage 0, cut diam. 9 μm, Albuterol 0.5%, 28.3 lpm, 10 actuations", "value": 94.624, "unit": "µg"},
      {"measurement": "Recovery Mass", "setting": "stage 1, cut diam. 5.8 μm", "value": 109.084, "unit": "µg"},
      {"measurement": "Recovery Mass", "setting": "stage 2, cut diam. 4.7 μm", "value": 44.263, "unit": "µg"},
      {"measurement": "Recovery Mass", "setting": "stage 3, cut diam. 3.3 μm", "value": 57.880, "unit": "µg"},
      {"measurement": "Recovery Mass", "setting": "stage 4, cut diam. 2.1 μm", "value": 97.704, "unit": "µg"},
      {"measurement": "Recovery Mass", "setting": "stage 5, cut diam. 1.1 μm", "value": 272.744, "unit": "µg"},
      {"measurement": "Recovery Mass", "setting": "stage 6, cut diam. 0.7 μm", "value": 107.733, "unit": "µg"},
      {"measurement": "Recovery Mass", "setting": "stage 7, cut diam. 0.4 μm", "value": 41.530, "unit": "µg"},
      {"measurement": "Recovery Mass, Sum", "setting": "sum of all impactor stages", "value": 856.58, "unit": "µg"}
    ]}
  ]
}
